# According to patent publication US20080045485A1, “Methods of diagnosing synovial disease in a mammal by detecting bacterial DNA in synovial tissues from dogs with inflammatory knee arthritis and degenerative anterior cruciate ligament rupture” (priority 2006, published 2008):
# Entries after “also recorded” stand apart in the source; their conditions may differ. At least one compound was matched to its structure with a doubt left.
# Key:
# [1] = tested on: panbacterial 16S rRNA gene (joint bacteria); test: Panbacterial 16S rRNA PCR of stifle synovial fluid before and after doxycycline treatment; format: in vivo, dog; conditions: oral 5 mg/kg bid for 10 weeks
# [2] = tested on: Borrelia burgdorferi OspA gene; test: Borrelia burgdorferi OspA PCR of stifle synovial fluid before and after doxycycline treatment; format: in vivo; conditions: dog initially OspA PCR-positive, oral 5 mg/kg bid for 10 weeks, n=1 dog, follow-up synovial fluid
compound,measurement,setting,value
C[C@H]1c2cccc(O)c2C(=O)C2=C(O)[C@]3(O)C(=O)C(C(N)=O)=C(O)[C@@H](N(C)C)[C@@H]3[C@@H](O)[C@@H]21 [doxycycline],treatment effect on joint bacteria (16S rRNA PCR-positive joints),"[1]; 6 dogs, P<0.05, Fisher Exact test",significant positive treatment effect; also recorded: significantly reduces joint bacteria
same,16S rRNA PCR status of stifle joints after treatment,"[1]; dogs with stifle arthritis/degenerative ACL rupture, initially 16S rRNA PCR-positive, n=6 dogs, follow-up synovial fluid",became PCR-negative; also recorded: All 6 dogs were PCR-negative; also recorded: Elimination of the 16S rRNA PCR product
same,OspA PCR status after treatment,[2],remained PCR-positive; also recorded: remained OspA positive
